Some results were stated once for a whole list of compounds, not compound by compound.
Test: Diffusion from droplets into the oil analyzed by HPLC
Assay type: physicochemical
Details: data not shown

O=C1C[C@@H](c2ccc(O)cc2)Oc2cc(O)cc(O)c21 [naringenin]
diffusion into the oil: < 20%

— patent US20200399632A1, “SENSOR SYSTEMS” (enEvolv, Inc., priority 2018, published 2020)
